Drawing on PMC7862700, this text covers binding signal for 39 sequences.

Only a part is listed here, and it is no random draw. At the low end of the ranking, values are background and their order means little.

The assay deals with T1, ETV3 (UniProt P41162-2).
T1 sequence: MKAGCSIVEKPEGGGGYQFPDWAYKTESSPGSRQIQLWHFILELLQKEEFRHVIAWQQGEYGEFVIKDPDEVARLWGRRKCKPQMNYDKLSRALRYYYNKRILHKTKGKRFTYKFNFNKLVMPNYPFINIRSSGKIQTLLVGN
In words: DAPPL (digital affinity profiling via proximity ligation, sequencing). The conditions noted are these: 10 mM Tris-HCl pH 7.5, 50 mM NaCl, 1 mM DTT, 4% glycerol, room temperature, 30 min; GST-TFs on glutathione beads, 16-mer random dsDNA library, 0.1% …; high values mean tight binding; double strand, one strand shown; scale: fold enrichment (6-mer frequency, TF over GST control).
In the case of AATACA, the binding signal was 1.28. For CTGCTA the value was 1.39; for CTTATG, 1.64. For GATTCT the value was 1.28. GTCCCT returned a binding signal of 1.26. For AAGGAA the value was 1.37; for GCTTCG, 1.37.

Sequence TGATGG registered a binding signal of 1.2. Turning to GCGTTC, the binding signal is 1.11. With TTTACA the figure was 1.22; with CCTATT, 1.52; with TGCGTA, 0.997. With ACTTTA the figure was 1.19. For ATCCGA the value was 1.11; for TACCTC, 1.25; for TGGAAA, 1.08.

With CTTTTG, the binding signal was 1.24. CTTTTT had a binding signal of 1.24. With TTCCTG the figure was 2.66; with TTGGGT, 0.975.

Consider CTGAGC, for which the binding signal amounted to 1.01.

Sequence ATAATT registered a binding signal of 1.32.

On to CTTGCA, for which the binding signal worked out at 1.45.

TGTGTT yielded a binding signal of 0.969. For CTGCAC the value was 1.23; for TCCTCT, 1.63. GAAATC had a binding signal of 1.42. In turn, AGAAGC returned a binding signal of 1.23. With TCGAAT the figure was 0.997. For TGTGGA the value was 1.02; for TTTAAA, 1.22. With CTCTTG the figure was 1.35; with CCTGGA, 1.37; with GGCTCA, 1.23. As for GATGGT, the binding signal stood at 1.12. With TAAACG the figure was 1.15; with ACCCCG, 1.11; with GAAGTT, 1.7. For TGTAGC the value was 1.22.
